# Test results taken from the supplement of paper PMC8728848.
# The list shows a part of the results.
# B1: Intelectin 1 (Homo sapiens), Q8WWA0 (protein)
# chain: MNQLSFLLFLIATTRGWSTDEANTYFKEWTCSSSPSLPRSCKEIKDECPSAFDGLYFLRTENGVIYQTFCDMTSGGGGWTLVASVHENDMRGKCTVGDRWSSQQGSKAVYPEGDGNWANYNTFGSAEAATSDDYKNPGYYDIQAKDLGIWHVPNKSPMQHWRNSSLLRYRTDTGFLQTLGHNLFGIYQKYPVKYGEGKCWTDNGPVIPVVYDFGDAQKTASYYSPYGQREFTAGFVQFRVFNNERAANALCAGMRVTGCNTEHHCIGGGGYFPEASPQQCGDFSGFDWSGYGTHVGYSSSREITEAAVLLFYR
# Tests used:
# Assay in all cases: glycan array binding signal (z-score within array); higher = stronger binding
# Settings in all cases: glycan notation: IUPAC condensed, linker removed
# [1] = target: Fuc(a1-2)[GalNAc(a1-3)]Gal(b1-4)[Fuc(a1-3)]GlcNAc
# Outline: (§1)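 The binding signal is a Z-score computed within each array. Data were drawn from 3228 arrays in the Consortium for Functional Glycomics database, restricted to those with a known protein sequence. Scores were averaged over arrays of the same protein sequence at different concentrations or buffers, and over linkers, and negative values can be taken as non-binding.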
# [2] = target: Fuc(a1-2)[GalNAc(a1-3)]Gal(b1-4)[Fuc(a1-3)]GlcNAc(b1-3)GalNAc
# Outline: as §1
# [3] = target: Fuc(a1-2)[GalNAc(a1-4)]Gal(b1-4)GlcNAc
# Outline: as §1
# [4] = target: Fuc(a1-2)[GalNAc(b1-3)]Gal
# Outline: as §1
# Fuc(a1-3)GlcNAc = target: Fuc(a1-3)GlcNAc
# Outline: as §1
# [5] = target: Fuc(a1-3)[Gal(b1-4)]Glc6S
# Outline: as §1
# [6] = target: Fuc(a1-3)[Gal(b1-4)]GlcNAc
# Outline: as §1
# [7] = target: Fuc(a1-3)[Gal(b1-4)]GlcNAc(b1-2)Man(a1-3)[Fuc(a1-3)[Gal(b1-4)]GlcNAc(b1-2)Man(a1-6)]Man(b1-4)GlcNAc(b1-4)GlcNAc
# Outline: as §1
# [8] = target: Fuc(a1-3)[Gal(b1-4)]GlcNAc(b1-2)Man(a1-3)[Fuc(a1-3)[Gal(b1-4)]GlcNAc(b1-2)Man(a1-6)]Man(b1-4)GlcNAc(b1-4)[Fuc(a1-6)]GlcNAc
# Outline: as §1
# [9] = target: Fuc(a1-3)[Gal(b1-4)]GlcNAc(b1-3)Gal(b1-3)[Fuc(a1-4)]GlcNAc
# Outline: as §1
# [10] = target: Fuc(a1-3)[Gal(b1-4)]GlcNAc(b1-3)GalNAc
# Outline: as §1
# [11] = target: Fuc(a1-3)[Gal(b1-4)]GlcNAc(b1-4)Gal(b1-4)[Fuc(a1-3)]GlcNAc
# Outline: as §1
# [12] = target: Fuc(a1-3)[Gal(b1-4)]GlcNAc(b1-4)Gal(b1-4)[Fuc(a1-3)]GlcNAc(b1-4)Gal(b1-4)[Fuc(a1-3)]GlcNAc
# Outline: as §1
# [13] = target: Fuc(a1-3)[Gal(b1-4)]GlcNAc(b1-6)GalNAc
# Outline: as §1
# [14] = target: Fuc(a1-3)[Gal(b1-4)]GlcNAc(b1-6)[Gal(b1-3)GlcNAc(b1-3)]Gal(b1-4)Glc
# Outline: as §1
# [15] = target: Fuc(a1-3)[Gal(b1-4)]GlcNAc(b1-6)[Neu5Ac(a2-3)Gal(b1-3)]GalNAc
# Outline: as §1
# [16] = target: Fuc(a1-3)[Gal(b1-4)]GlcNAc6S
# Outline: as §1
# [17] = target: Fuc(a1-3)[Gal3S(b1-4)]GlcNAc
# Outline: as §1
# [18] = target: Fuc(a1-3)[Gal3S(b1-4)]GlcNAc6S
# Outline: as §1
# [19] = target: Fuc(a1-3)[GalNAc(b1-4)]GlcNAc
# Outline: as §1
# Fuc(a1-4)GlcNAc = target: Fuc(a1-4)GlcNAc
# Outline: as §1
# Fuc(b1-3)GlcNAc = target: Fuc(b1-3)GlcNAc
# Outline: as §1
# Gal(a1-2)Gal = target: Gal(a1-2)Gal
# Outline: as §1
# Gal(a1-3)Gal = target: Gal(a1-3)Gal
# Outline: as §1
# Gal(a1-3)Gal(b1-3)GlcNAc = target: Gal(a1-3)Gal(b1-3)GlcNAc
# Outline: as §1
# [20] = target: Gal(a1-3)Gal(b1-3)GlcNAc(b1-2)Man(a1-3)[Gal(a1-3)Gal(b1-3)GlcNAc(b1-2)Man(a1-6)]Man(b1-4)GlcNAc(b1-4)GlcNAc
# Outline: as §1
# [21] = target: Gal(a1-3)Gal(b1-3)GlcNAc(b1-3)GalNAc
# Outline: as §1
# [22] = target: Gal(a1-3)Gal(b1-3)[Fuc(a1-4)]GlcNAc(b1-2)Man(a1-3)[Gal(a1-3)Gal(b1-3)[Fuc(a1-4)]GlcNAc(b1-2)Man(a1-6)]Man(b1-4)GlcNAc(b1-4)GlcNAc
# Outline: as §1
# Gal(a1-3)Gal(b1-4)Glc = target: Gal(a1-3)Gal(b1-4)Glc
# Outline: as §1
# Gal(a1-3)Gal(b1-4)GlcNAc = target: Gal(a1-3)Gal(b1-4)GlcNAc
# Outline: as §1
# [23] = target: Gal(a1-3)Gal(b1-4)GlcNAc(b1-3)GalNAc
# Outline: as §1
# [24] = target: Gal(a1-3)Gal(b1-4)[Fuc(a1-3)]GlcNAc
# Outline: as §1
# [25] = target: Gal(a1-3)Gal(b1-4)[Fuc(a1-3)]GlcNAc(b1-2)Man(a1-3)[Gal(a1-3)Gal(b1-4)[Fuc(a1-3)]GlcNAc(b1-2)Man(a1-6)]Man(b1-4)GlcNAc(b1-4)GlcNAc
# Outline: as §1
# Gal(a1-3)GalNAc = target: Gal(a1-3)GalNAc
# Outline: as §1
# [26] = target: Gal(a1-3)[Gal(a1-4)]Gal(b1-4)GlcNAc
# Outline: as §1
# [27] = target: Gal(a1-4)Gal(b1-3)GlcNAc(b1-2)Man(a1-3)[Gal(a1-4)Gal(b1-3)GlcNAc(b1-2)Man(a1-6)]Man(b1-4)GlcNAc(b1-4)GlcNAc
# Outline: as §1
# Gal(a1-4)Gal(b1-4)Glc = target: Gal(a1-4)Gal(b1-4)Glc
# Outline: as §1
# Gal(a1-4)Gal(b1-4)GlcNAc = target: Gal(a1-4)Gal(b1-4)GlcNAc
# Outline: as §1
binder,measurement,setting,value
B1,glycan array binding signal (z-score),[1],1.26
same,glycan array binding signal (z-score),[2],0.747
same,glycan array binding signal (z-score),[3],-0.505
same,glycan array binding signal (z-score),[4],0.299
same,glycan array binding signal (z-score),Fuc(a1-3)GlcNAc,-0.706
same,glycan array binding signal (z-score),[5],0.41
same,glycan array binding signal (z-score),[6],-0.618
same,glycan array binding signal (z-score),[7],0.131
same,glycan array binding signal (z-score),[8],0.394
same,glycan array binding signal (z-score),[9],0.245
same,glycan array binding signal (z-score),[10],0.022
same,glycan array binding signal (z-score),[11],0.645
same,glycan array binding signal (z-score),[12],0.26
same,glycan array binding signal (z-score),[13],-0.284
same,glycan array binding signal (z-score),[14],0.294
same,glycan array binding signal (z-score),[15],-0.6
same,glycan array binding signal (z-score),[16],1.08
same,glycan array binding signal (z-score),[17],-0.215
same,glycan array binding signal (z-score),[18],0.673
same,glycan array binding signal (z-score),[19],0.402
same,glycan array binding signal (z-score),Fuc(a1-4)GlcNAc,-0.919
same,glycan array binding signal (z-score),Fuc(b1-3)GlcNAc,0.358
same,glycan array binding signal (z-score),Gal(a1-2)Gal,0.438
same,glycan array binding signal (z-score),Gal(a1-3)Gal,-0.751
same,glycan array binding signal (z-score),Gal(a1-3)Gal(b1-3)GlcNAc,-0.17
same,glycan array binding signal (z-score),[20],0.538
same,glycan array binding signal (z-score),[21],1.19
same,glycan array binding signal (z-score),[22],-0.468
same,glycan array binding signal (z-score),Gal(a1-3)Gal(b1-4)Glc,-0.288
same,glycan array binding signal (z-score),Gal(a1-3)Gal(b1-4)GlcNAc,0.459
same,glycan array binding signal (z-score),[23],-0.493
same,glycan array binding signal (z-score),[24],-0.367
same,glycan array binding signal (z-score),[25],1.02
same,glycan array binding signal (z-score),Gal(a1-3)GalNAc,-0.41
same,glycan array binding signal (z-score),[26],0.846
same,glycan array binding signal (z-score),[27],0.435
same,glycan array binding signal (z-score),Gal(a1-4)Gal(b1-4)Glc,-0.733
same,glycan array binding signal (z-score),Gal(a1-4)Gal(b1-4)GlcNAc,-0.537
